Data from patent EP4588908A1, “NEW PROSTACYCLIN FOR TREATING PULMONARY HYPERTENSION” (Shanghai Forefront Pharma Co., Ltd., priority 2023, dated 2025).

Assay: Body weight of MCT-modelled PAH rats under intragastric administration
Format: in vivo, Sprague-Dawley rats
Conditions: Day 14 = start of intragastric dosing, mean ± spread

| SMILES | Body weight on Day 14 (3 mg/kg/day group) | Body weight on Day 14 (g) (3 mg/kg/day group) | Body weight on Day 14 (g) (6 mg/kg/day group) |
| --- | --- | --- | --- |
| CCCCC[C@H](O)CC[C@H]1[C@H](O)[C@@H](CC)[C@@H]2Cc3c(cccc3OCC(=O)O)C[C@@H]21 [Compound 1] | 428 ± 29.90 g | – | – |
| CCCCC[C@H](O)CC[C@@H]1[C@H]2Cc3cccc(OCC(=O)O)c3C[C@H]2C[C@H]1O [Compound C1, Treprostinil sodium 5.5-hydrate] | – | 430+34.15 g | 413+15.81 g |
